The values below come from article PMC7840056.

Assay [1] has as its target NiuE cytoplasmic NTP-binding protein fused to the T18 fragment (pUT18) (Helicobacter pylori (strain B128)). The assay can be described thus: two-hybrid; Bacterial Adenylate Cyclase Two-Hybrid (BACTH) in E. coli BTH101; SlyD fused to T25, Niu proteins fused to T18 (pUT18); LB with IPTG 10^-3 M overnight at 30°C; ß-galactosidase activity in Miller units.
Assay [2] addresses NiuB1 periplasmic nickel-binding protein fused to the T18 fragment (pUT18) (Helicobacter pylori (strain B128)). The description is as above.

Results are given in words; binding and its absence hold for the method and conditions named. Where a sequence is shown, tags or fusion partners need not be part of it.

B1: SlyD wild type fused to the T25 fragment of Bordetella pertussis adenylate cyclase (pNKT25) (protein, UniProt O25748 1-185)
chain: MQNHDLESIKQAALIEYEVREQGSSIVLDSNISKEPLEFIIGTNQIIAGLEKAVLKAQIGEWEEVVIAPEEAYGVYESSYLQEVPRDQFEGIELEKGMSVFGQTEDNQTIQAIIKDFSATHVMVDYNHPLAGKTLAFRFKVLGFREVSEEEILASHHGGGTGCCGGHGGHGGKKGGGCGCSCSHG
B1: the binding entry in assay [1] and in assay [2] was “no binding” each time.
